Source: publication PMC6678495
These are yes or no findings as the source states them, for the method shown. For part of these data: Binding seen in cells or lysates may run through a third protein. Some binding calls cover weakened binding; strength is not graded here. Sequences can lack the tags named with a protein.

The chains behind the UniProt entries cited, without tags or fusion partners.
UniProt Q9QZR5: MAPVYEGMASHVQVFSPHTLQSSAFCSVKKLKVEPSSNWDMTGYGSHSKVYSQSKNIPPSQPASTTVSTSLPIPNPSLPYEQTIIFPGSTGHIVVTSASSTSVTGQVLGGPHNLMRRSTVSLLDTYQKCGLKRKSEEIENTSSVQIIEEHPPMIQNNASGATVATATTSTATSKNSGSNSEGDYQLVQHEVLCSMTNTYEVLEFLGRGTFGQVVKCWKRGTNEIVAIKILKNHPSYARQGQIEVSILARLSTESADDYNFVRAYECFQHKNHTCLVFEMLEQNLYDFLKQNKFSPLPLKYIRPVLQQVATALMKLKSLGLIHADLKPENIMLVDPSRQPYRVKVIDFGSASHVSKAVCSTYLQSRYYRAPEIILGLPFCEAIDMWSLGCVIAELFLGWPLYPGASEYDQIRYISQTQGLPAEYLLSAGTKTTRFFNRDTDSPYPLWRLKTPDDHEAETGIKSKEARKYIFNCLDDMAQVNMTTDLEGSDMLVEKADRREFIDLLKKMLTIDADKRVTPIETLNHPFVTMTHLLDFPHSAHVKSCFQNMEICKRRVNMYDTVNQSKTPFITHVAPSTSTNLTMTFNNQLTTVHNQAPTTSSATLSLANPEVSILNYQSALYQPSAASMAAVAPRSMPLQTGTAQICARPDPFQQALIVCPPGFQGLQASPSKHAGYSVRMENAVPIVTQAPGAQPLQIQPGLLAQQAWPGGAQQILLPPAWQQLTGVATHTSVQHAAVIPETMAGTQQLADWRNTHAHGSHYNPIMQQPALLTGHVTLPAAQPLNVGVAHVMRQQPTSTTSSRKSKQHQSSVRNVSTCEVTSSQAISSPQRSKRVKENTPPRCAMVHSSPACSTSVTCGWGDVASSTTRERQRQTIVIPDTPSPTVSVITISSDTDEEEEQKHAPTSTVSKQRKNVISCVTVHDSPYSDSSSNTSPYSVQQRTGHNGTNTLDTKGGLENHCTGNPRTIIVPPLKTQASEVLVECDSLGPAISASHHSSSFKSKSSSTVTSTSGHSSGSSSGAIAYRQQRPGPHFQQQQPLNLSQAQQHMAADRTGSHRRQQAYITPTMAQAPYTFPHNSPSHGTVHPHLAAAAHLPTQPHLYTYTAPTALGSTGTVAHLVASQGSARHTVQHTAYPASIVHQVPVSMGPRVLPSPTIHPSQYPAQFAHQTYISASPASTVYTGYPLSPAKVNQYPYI

What was measured:
[1] = biological target: T1, flag-myc-tagged spastin (UniProt Q9UBP0); test: co-IP; HeLa cells transiently co-expressing flag-myc-spastin and GFP-HIPK2; non-denaturating lysis buffer (50 mM Tris-HCl pH 8, 150 mM NaCl, 1% NP40, 5 mM EDTA); IP with anti-Flag or anti-GFP, Western blot
T1 sequence: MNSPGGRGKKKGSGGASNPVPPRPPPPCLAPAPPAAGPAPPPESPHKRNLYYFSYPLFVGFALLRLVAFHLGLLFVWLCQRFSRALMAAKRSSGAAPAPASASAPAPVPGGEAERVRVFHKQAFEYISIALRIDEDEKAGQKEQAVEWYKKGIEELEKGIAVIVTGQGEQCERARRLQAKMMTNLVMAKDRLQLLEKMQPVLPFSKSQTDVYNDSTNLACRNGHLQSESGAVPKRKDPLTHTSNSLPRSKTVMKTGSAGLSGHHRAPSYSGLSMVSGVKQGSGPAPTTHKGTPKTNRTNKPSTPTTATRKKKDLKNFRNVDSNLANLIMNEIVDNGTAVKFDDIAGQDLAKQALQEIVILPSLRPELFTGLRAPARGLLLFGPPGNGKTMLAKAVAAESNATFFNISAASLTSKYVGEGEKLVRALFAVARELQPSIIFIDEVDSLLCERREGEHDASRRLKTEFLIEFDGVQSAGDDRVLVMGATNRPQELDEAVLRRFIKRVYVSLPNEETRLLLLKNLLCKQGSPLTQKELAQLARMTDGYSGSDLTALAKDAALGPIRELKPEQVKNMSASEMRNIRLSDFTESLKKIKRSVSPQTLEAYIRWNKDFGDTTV

[2] = biological target: GFP-tagged HIPK2 (mouse) (UniProt Q9QZR5); test: as above
[3] = biological target: GST-HIPK2 (UniProt Q9QZR5); test: pull-down; GST-HIPK2 (purified by GST pull-down) incubated with 100 ng of recombinant His6-tagged spastin 79-310 in 50 mM Tris-HCl pH 7.5, 150 nM NaCl (so in the source); bound spastin analysed by Western blot; both purified

With “GFP-tagged HIPK2 (from UniProt Q9QZR5 1-1196) (enzyme)” as the molecule, how does the binding [1] read?
The binding was “binds”.

B1: flag-myc-tagged spastin (protein, UniProt Q9UBP0 1-616)
chain: T1 sequence
For B1, which binding [2] is on record?
Its binding is “binds”.

B2: His6-tagged spastin 79–310 (domain or fragment, UniProt Q9UBP0 79-310)
chain: CQRFSRALMAAKRSSGAAPAPASASAPAPVPGGEAERVRVFHKQAFEYISIALRIDEDEKAGQKEQAVEWYKKGIEELEKGIAVIVTGQGEQCERARRLQAKMMTNLVMAKDRLQLLEKMQPVLPFSKSQTDVYNDSTNLACRNGHLQSESGAVPKRKDPLTHTSNSLPRSKTVMKTGSAGLSGHHRAPSYSGLSMVSGVKQGSGPAPTTHKGTPKTNRTNKPSTPTTATRK
For B2, which binding [3] is on record?
Its binding is “binds”.
